Article doi:10.1101/2024.07.29.605622
Read-outs that look alike come from different tables or passages of the source. These are yes or no findings as the source states them, for the method shown. In cells and extracts the contact can be indirect. Some results given as binding are weak or reduced against the parent protein; the word gives no strength.

By UniProt entry, the sequences of proteins in these tests, tags left out.
UniProt Q93009: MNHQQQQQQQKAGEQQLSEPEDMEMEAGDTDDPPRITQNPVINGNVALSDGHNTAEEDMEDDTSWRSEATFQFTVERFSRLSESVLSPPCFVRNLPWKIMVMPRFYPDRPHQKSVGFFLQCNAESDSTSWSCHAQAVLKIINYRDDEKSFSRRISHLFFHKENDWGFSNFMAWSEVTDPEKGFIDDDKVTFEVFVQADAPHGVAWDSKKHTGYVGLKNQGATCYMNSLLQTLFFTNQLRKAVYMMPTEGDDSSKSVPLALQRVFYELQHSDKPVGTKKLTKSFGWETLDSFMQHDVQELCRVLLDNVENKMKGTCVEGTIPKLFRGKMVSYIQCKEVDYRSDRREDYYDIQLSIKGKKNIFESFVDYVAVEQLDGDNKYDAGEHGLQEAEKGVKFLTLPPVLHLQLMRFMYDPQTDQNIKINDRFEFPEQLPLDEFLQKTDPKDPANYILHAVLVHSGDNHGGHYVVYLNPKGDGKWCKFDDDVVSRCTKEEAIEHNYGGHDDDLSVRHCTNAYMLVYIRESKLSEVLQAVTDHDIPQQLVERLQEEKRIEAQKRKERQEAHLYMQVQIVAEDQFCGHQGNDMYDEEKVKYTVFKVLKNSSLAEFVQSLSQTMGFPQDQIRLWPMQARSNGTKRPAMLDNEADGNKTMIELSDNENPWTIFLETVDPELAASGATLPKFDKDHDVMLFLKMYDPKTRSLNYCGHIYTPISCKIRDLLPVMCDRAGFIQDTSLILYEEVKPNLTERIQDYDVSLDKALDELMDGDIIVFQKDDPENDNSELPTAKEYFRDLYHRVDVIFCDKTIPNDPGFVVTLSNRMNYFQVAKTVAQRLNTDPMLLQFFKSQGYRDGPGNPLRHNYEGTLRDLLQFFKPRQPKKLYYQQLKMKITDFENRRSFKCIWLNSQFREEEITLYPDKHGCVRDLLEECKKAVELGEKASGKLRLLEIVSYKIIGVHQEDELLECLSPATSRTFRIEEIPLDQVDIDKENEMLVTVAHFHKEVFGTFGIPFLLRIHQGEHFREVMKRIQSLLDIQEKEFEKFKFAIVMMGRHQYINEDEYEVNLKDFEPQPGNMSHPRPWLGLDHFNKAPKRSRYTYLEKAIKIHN
UniProt P51784: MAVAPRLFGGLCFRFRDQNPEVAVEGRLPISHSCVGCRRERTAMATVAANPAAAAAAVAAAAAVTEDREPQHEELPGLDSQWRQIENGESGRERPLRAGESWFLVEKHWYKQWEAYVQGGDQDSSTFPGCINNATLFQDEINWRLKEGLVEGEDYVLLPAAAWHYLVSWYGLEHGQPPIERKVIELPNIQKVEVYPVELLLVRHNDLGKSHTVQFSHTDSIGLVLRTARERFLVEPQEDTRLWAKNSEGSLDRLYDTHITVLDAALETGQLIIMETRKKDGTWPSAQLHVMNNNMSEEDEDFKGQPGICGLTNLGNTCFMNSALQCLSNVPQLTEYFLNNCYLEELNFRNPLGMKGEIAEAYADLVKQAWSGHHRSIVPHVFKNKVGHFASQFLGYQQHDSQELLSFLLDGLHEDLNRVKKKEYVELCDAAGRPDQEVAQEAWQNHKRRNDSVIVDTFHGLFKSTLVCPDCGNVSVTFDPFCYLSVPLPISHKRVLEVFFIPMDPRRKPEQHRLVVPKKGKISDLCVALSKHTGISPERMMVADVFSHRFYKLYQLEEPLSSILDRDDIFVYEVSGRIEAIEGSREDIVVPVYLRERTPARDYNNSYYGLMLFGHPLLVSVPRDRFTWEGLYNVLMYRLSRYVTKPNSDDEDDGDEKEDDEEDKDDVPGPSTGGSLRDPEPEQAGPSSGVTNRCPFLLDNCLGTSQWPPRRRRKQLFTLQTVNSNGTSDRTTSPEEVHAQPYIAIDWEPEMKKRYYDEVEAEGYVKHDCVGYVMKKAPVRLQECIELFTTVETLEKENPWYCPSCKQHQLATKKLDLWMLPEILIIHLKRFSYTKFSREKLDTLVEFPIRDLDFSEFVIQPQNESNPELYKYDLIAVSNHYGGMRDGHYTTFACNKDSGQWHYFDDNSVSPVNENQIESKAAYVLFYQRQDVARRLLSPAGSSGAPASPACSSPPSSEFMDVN

Key:
Test in all cases: co-IP
[1] = biological target: USP7 (endogenous) (human (endogenous in SH-EP)) (UniProt Q93009)
[2] = biological target: USP11 (endogenous) (human (endogenous in SH-EP)) (UniProt P51784)
[3] = biological target: USP11 (endogenous) (human (endogenous in SH-EP)) (UniProt P51784); remark: listed apart in the source

Substance	binding [1]	binding [2]	binding [3]
USP11 (endogenous) (from UniProt P51784 1-963) (enzyme)	binds		
USP7 (endogenous) (from UniProt Q93009 1-1102) (enzyme)		binds	binds
